{"sequences": {"note": "By UniProt entry, the sequences of proteins in these tests, tags left out. Residues count along the entry.", "UniProt O75460, 469-977": "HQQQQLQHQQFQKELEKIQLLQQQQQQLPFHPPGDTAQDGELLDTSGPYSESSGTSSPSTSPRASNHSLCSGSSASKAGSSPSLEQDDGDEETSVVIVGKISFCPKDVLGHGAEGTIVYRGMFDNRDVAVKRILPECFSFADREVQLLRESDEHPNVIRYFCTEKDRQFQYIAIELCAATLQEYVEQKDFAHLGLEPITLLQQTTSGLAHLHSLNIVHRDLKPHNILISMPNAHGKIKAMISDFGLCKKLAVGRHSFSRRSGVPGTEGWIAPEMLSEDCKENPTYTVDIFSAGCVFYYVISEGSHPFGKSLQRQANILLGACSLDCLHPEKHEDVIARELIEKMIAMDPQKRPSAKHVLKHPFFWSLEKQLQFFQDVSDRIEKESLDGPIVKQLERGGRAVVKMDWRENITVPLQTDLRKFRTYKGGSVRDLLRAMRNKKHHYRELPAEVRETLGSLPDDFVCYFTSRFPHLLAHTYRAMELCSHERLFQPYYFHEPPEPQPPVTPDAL"}, "source": "patent US20170165259A1", "about": "“COMBINED MODULATION OF IRE1” (THE REGENTS OF THE UNIVERSITY OF CALIFORNIA, priority 2014, published 2017)", "key": {"[1]": {"tested_on": "Ins2^+/Akita (Akita) mouse", "assay": "Akita mouse chronic efficacy study", "format": "in vivo", "procedure": "FIGS. 17A-17C. […] (FIGS. 17A-17B) Random insulin and C-peptide levels in Ins2^+/Akita mice on Day 58 (21 d post injections). KIRA6 (5 mg/kg)(n=5) and vehicle (n=4). (FIG. 17C) Total β-cell area as a percentage of total pancreas area on Day 55 (18 d post injections). KIRA6 (5 mg/kg)(n=6) and vehicle (n=3).\nBased on low micromolar KIRA6 needed for protection in cell culture, we chose i.p. dosing regimens of 5 or 10 mg/kg b.i.d for Akita chronic efficacy studies to provide similar exposure. We injected KIRA6 into randomized 3-week old male Akita mice when their random blood glucose levels were at prediabetic range (˜200 mg/dl).\n[…] and C57BL/6 Ins2^WT/C96Y (Ins2^+/Akita) mice were obtained from Jackson Laboratories. Glucose levels were measured from tail snips obtained between 9:00 and 11:00 AM using a glucometer (Nova Statstrip Xpress, Data Sciences International). Serum insulin and C-peptide levels were measured using mouse ultra-sensitive insulin and C-peptide ELISA (Mercodia). Animals were maintained in a specific pathogen-free animal facility on a 12-h light-dark cycle at an ambient temperature of 21° C. They were given free access to water and food. All experiments used age-matched male mice.\nMice were fasted for 17 h before i.p. injection with glucose (2 g/kg of body weight). Blood was collected from the tail, and glucose levels were determined by using a glucometer (Nova Statstrip Xpress, Data Sciences International).\nPancreatic sectioning, staining and analysis were done as described previously (Chintinne et al., 2010). Briefly, whole pancreas in paraffin-embedded blocks from vehicle (n=3) and KIRA6 (n=6) treated mice were serially sectioned at intervals of 250 m. Every 10th section was stained with anti-insulin (Invitrogen). Nuclei were stained with DAPI (Sigma-Aldrich). A minimum of 2% of the total organ volume was stained and measured. The pancreas and β-cell areas were measured with the Zeiss Axiolmager Brightfield Microscope and quantified with VOLOCITY software."}, "[2]": {"tested_on": "TXNIP 3′UTR luciferase reporter", "assay": "TXNIP 3′UTR reporter luciferase assay", "format": "cell-based"}, "IRE1α* [3]": {"molecular_target": "T1, IRE1α* (Homo sapiens, UniProt O75460)", "T1 construct": "human IRE1α (residues 469-977, IRE1α*); made in house; host or cells: SF9 insect cells, Bac-to-Bac baculovirus", "assay": "DSS crosslinking, oligomer/monomer ratio of IRE1α*", "format": "biochemical", "details": "saturating inhibitor, DSS crosslinker"}, "IRE1α* [4]": {"molecular_target": "T1, IRE1α*", "assay": "IRE1α* autophosphorylation kinase assay in vitro", "format": "biochemical"}, "IRE1α* [5]": {"molecular_target": "T1, IRE1α*", "assay": "IRE1α* kinase assay (96-well dot blot, 32γ-ATP, STK peptide substrate 2)", "format": "biochemical", "details": "in vitro", "procedure": "FIGS. 16A-16C. Divergent modulation of IRE1α RNase activity using distinct classes of kinase inhibitors. (FIG. 16A) KIRA6 inhibition of IRE1α* kinase activity. IC50 values determined by fitting percent kinase activity (n=3); Urea PAGE of competition cleavage by IRE1α* of XBP1 RNA mini-substrate (FIG. 16B) and α^32P-labeled Ins2 RNA (FIG. 16C), under indicated [KIRA6]; IC50s determined by fitting in-gel fluorescence intensities (XBP1) and phosphorimager (Ins2).\nKIRAs are tested for ability to inhibit IRE1α* kinase and RNase activities in vitro. The XBP1 minisubstrate assay shown in FIGS. 1B-1C, is amenable to 96- or 384-well format, and is used to determine RNase IC50s. In parallel, kinase IC50s for all KIRAs are determined in a 96-well dot blot assay with 32γ-ATP and STK peptide substrate 2 as substrates. Time-dependence of inhibition is determined for all electrophile-containing KIRAs. RNase and kinase assays have been used to profile the KIRAs in FIG. 13, showing a strong correlation between kinase and RNase IC50s. […] Thus, the structure-based design strategy uses these two kinases as counter targets (described below)."}, "IRE1α (I642G)": {"tested_on": "IRE1α (I642G)", "assay": "1NM-PP1 competition in cells expressing IRE1α (I642G)", "format": "cell-based"}, "[6]": {"tested_on": "mouse embryonic fibroblasts (MEFs)", "assay": "Cytoprotection in mouse embryonic fibroblasts", "format": "cell-based"}, "[7]": {"details": "5 mg/kg, 12 days after stopping injections"}, "[8]": {"details": "21 days after stopping injections"}}, "note": "“Also recorded” adds a separate entry of the source. At least one compound was matched to its structure with a doubt left."}
{"smiles": "CC(C)(C)c1nc(-c2ccc(NC(=O)Nc3cccc(C(F)(F)F)c3)c3ccccc23)c2c(N)nccn12", "note": "[KIRA6, 1-(4-(8-amino-3-tert-butylimidazo[1,5-a]pyrazin-1-yl)naphthalen-1-yl)-3-(3-(trifluoromethyl)phenyl)urea]", "values": [{"measurement": "glucose tolerance tests (GTT)", "setting": "[1]; [7]", "result": "significantly improved"}, {"measurement": "random blood glucose levels", "setting": "[1]; [7]", "result": "significantly improved"}, {"measurement": "random glucose levels", "setting": "[1]; 5 or 10 mg/kg b.i.d i.p., vs vehicle", "result": "ameliorates hyperglycemia; also recorded: significant amelioration of random glucose levels over several weeks"}, {"measurement": "insulin-positive islet areas", "setting": "[1]; 18 days after stopping injections", "result": "remained significantly higher"}, {"measurement": "plasma C-peptide", "setting": "[1]; [8]", "result": "statistically significant doubling"}, {"measurement": "plasma insulin", "setting": "[1]; [8]", "result": "increases insulin levels; also recorded: statistically significant doubling"}, {"measurement": "CHOP mRNA in islets", "setting": "[1]; mouse, in vivo", "result": "without compensatory increase of CHOP mRNA"}, {"measurement": "islet size (H&E and insulin staining)", "setting": "[1]; mouse, in vivo", "result": "increased islet size"}, {"measurement": "TXNIP mRNA levels in islets", "setting": "[1]; within one week", "result": "decline in islets of KIRA6-treated mice within one week"}, {"measurement": "IRE1α-dependent activation of TXNIP 3′UTR luciferase reporter", "setting": "[2]", "result": "Inhibits IRE1α-dependent activation of a TXNIP 3′UTR luciferase reporter"}, {"measurement": "IRE1α* oligomerization (oligomer/monomer ratio)", "setting": "IRE1α* [3]", "result": "dose-dependently inhibits; also recorded: reduces concentration-dependent oligomerization of IRE1α*"}, {"measurement": "IRE1α* autophosphorylation, effect in words", "setting": "IRE1α* [4]", "result": "dose-dependently reduces"}, {"measurement": "IRE1α* kinase activity, effect in words", "setting": "IRE1α* [5]", "result": "dose-dependently inhibits; also recorded: inhibits IRE1α* RNase and kinase activities with similar IC50s"}, {"measurement": "1NM-PP1 potentiation of Ins1 mRNA decay and apoptosis", "setting": "IRE1α (I642G); during ER stress", "result": "reduces 1NM-PP1 potentiation of Ins1 mRNA decay and apoptosis during ER stress"}, {"measurement": "1NM-PP1-induced XBP1 splicing by IRE1α (I642G)", "setting": "IRE1α (I642G); in vivo (cells)", "result": "antagonizes 1NM-PP1-induced XBP1 splicing by IRE1α (I642G) in vivo"}, {"measurement": "cytoprotective effects in WT, Ire1α−/− and Xbp1−/− MEFs", "setting": "[6]", "result": "absent in Ire1α^−/− mouse embryonic fibroblasts (MEFs), but still demonstrable in WT and Xbp1^−/− MEFs"}]}
